PubChem BioAssay AID1259308 – NCATS – 2017
The whole screen tested about 59,000 reagents; this is a part drawn at random. About 1,510 of all reagents (2.6%) were called active. 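Calls use total luciferase alone and ignore viability, so some active siRNAs may act by altering cell number.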 A number with no mark means an inactive call. The numbers tell different reagents against one gene apart.

Test: 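Knock-downs that increase output of a recombinant reporter protein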 (primary screen)
Cell system: human HEK293 embryonic kidney cells stably expressing firefly luciferase (HEK-CMV-Luc2-Hygro)
Knock-down reagent: single siRNA against human genes, 0.8 pmol siRNA per well
Timing: 72 h
Detection: 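Reporter luminescence and viable-cell signal on separate replicate plates, given as percent of non-targeting control and median/MAD z-scores, plus per-cell luciferase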
Scale: total luciferase, z-score and total luciferase, % of control: higher = more reporter protein produced; luciferase per cell, z-score: higher = more reporter output per viable cell; viable cells, % of control: higher = more viable cells
Active means: 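An siRNA counts as active if its total luciferase robust z-score exceeds 3; genes with two or more such siRNAs out of three were retested with fresh siRNAs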
Calls: active = raised luciferase; inactive = no rise

target	siRNA no.	total luciferase, z-score	total luciferase, % of control	luciferase per cell, z-score	viable cells, % of control
ST14	1	-0.354	74.8	-0.22	88.6
ST14	2	1.24	106	0.83	95.6
ST14	3	1.52	112	1.5	84.5
NCR1	1	0.595	93.7	0.151	101
NCR1	2	3.54 (active)	152	3.09	75.4
NCR1	3	-0.84	65.2	-0.828	90.6
ZNF836	1	0.207	86	0.793	78
ZNF836	2	0.69	95.6	0.486	94
ZNF836	3	-0.324	75.4	-0.576	98.1
ANKMY1	1	0.934	100	0.909	88.4
ANKMY1	2	-1.42	53.6	-0.609	70.4
ANKMY1	3	-0.254	76.8	0.528	74.7
HYAL3	1	1.79	117	0.52	114
HYAL3	2	-1.92	43.8	-2.9	105
HYAL3	3	-1.42	53.6	-1.92	99.2
GAL3ST3	1	0.471	91.2	-0.13	106
GAL3ST3	2	1.03	102	0.381	103
GAL3ST3	3	-1.33	55.5	-1.85	101
GTPBP10	1	0.724	96.3	1.03	82.1
GTPBP10	2	-1.22	57.6	-0.29	69.4
GTPBP10	3	-1.95	43.1	-2.54	94.1
RBMX2	1	0.649	94.8	0.514	92.5
RBMX2	2	0.18	85.5	-0.146	99.3
RBMX2	3	2.01	122	1.21	99.1
NUDT21	1	-0.721	67.6	-0.0986	77.5
NUDT21	2	7.21 (active)	225	4.55	76
NUDT21	3	0.275	87.4	0.362	88.7
MSH2	1	-0.039	81.1	-0.311	98.4
MSH2	2	0.816	98.1	0.764	89.7
MSH2	3	-0.214	77.6	-0.789	107

Called active, of those listed so far:
target	siRNA no.	total luciferase, z-score	total luciferase, % of control	luciferase per cell, z-score	viable cells, % of control
NCR1	2	3.54 (active)	152	3.09	75.4
NUDT21	2	7.21 (active)	225	4.55	76

Continued.
target	siRNA no.	total luciferase, z-score	total luciferase, % of control	luciferase per cell, z-score	viable cells, % of control
MTCH2	1	-0.759	66.8	-0.714	90.1
MTCH2	2	-1.5	52.1	-1.32	82.4
MTCH2	3	-0.447	73	1.54	54.4
EIF4E2	1	-0.105	79.8	0.11	86.6
EIF4E2	2	-0.00602	81.8	-0.455	103
EIF4E2	3	-1.35	55.1	-0.761	75.2
NAT10	1	-0.316	75.6	0.0485	83.4
NAT10	2	-0.354	74.9	-1.02	109
NAT10	3	-0.197	78	-0.184	91.5
ZNF527	1	-2.01	42	-1.09	62.5
ZNF527	2	0.0443	82.8	-0.372	102
ZNF527	3	1.32	108	2.01	71.1
LRRC47	1	0.37	89.2	0.107	97
LRRC47	2	-1.42	53.7	-0.575	69.8
LRRC47	3	2.06	123	1.57	90.8
FEM1A	1	1.02	102	0.833	91.7
FEM1A	2	-1.84	45.3	-1.75	80.3
FEM1A	3	0.42	90.2	0.151	96.9
AKR7A3	1	-0.151	78.9	-0.962	114
AKR7A3	2	-0.014	81.6	-0.072	92.9
AKR7A3	3	1.73	116	1.72	82.5
CDC123	1	0.172	85.3	-0.339	104
CDC123	2	-1.46	52.9	-0.671	70.6
CDC123	3	-1.04	61.3	-1.45	100
TEKT5	1	2.46	131	1.14	108
TEKT5	2	1.36	109	1.42	83.7
TEKT5	3	-0.641	69.1	-0.68	92.4
PRKX	1	-1.72	47.6	-0.99	69.1
PRKX	2	-0.537	71.2	-0.815	98.6
PRKX	3	-0.288	76.2	-0.0526	86.3
MMP25	1	0.062	83.1	0.24	87.2
MMP25	2	-3.2	18.3	-3.57	52.5
MMP25	3	-0.632	69.3	0.401	69.7
WDFY1	1	0.34	88.7	0.241	93
WDFY1	2	-0.382	74.3	-0.224	88.1
WDFY1	3	-2.58	30.6	-2.87	72.7
RAB11B	1	0.25	86.9	0.491	85.3
RAB11B	2	1.29	108	1.79	75
RAB11B	3	2.14	124	1.62	90.7
ZNF570	1	-0.287	76.2	1.11	63.6
ZNF570	2	-0.361	74.7	-0.175	87.4
ZNF570	3	0.922	100	0.463	99.2
OSTCP3	1	-0.9	64	-0.735	86.8
OSTCP3	2	-0.627	69.4	-0.189	81.5
OSTCP3	3	0.201	85.9	0.358	87.4
